According to PubChem BioAssay AID624297 (National Center for Advancing Translational Sciences (NCATS), 2012):
Among all 340,000 compounds or so, about 6,200 (1.8%) were called active. The inconclusive results got no clear call from the source; some entries with a clear call stand among them for comparison. Calls follow the shape of the dose curve; as a rule, active = well fitted activation curve with a large enough effect; inconclusive = small, poorly fitted or top-dose-only effect; inactive = no such curve, though single readings can be large or run the other way. Potencies of inconclusive entries are doubtful fits and often do not repeat.

assay: A quantitative high throughput screen for small molecules that induce DNA re-replication in SW480 colon adenocarcinoma cells.; also: nearly all actives have a fitted effect of over 55% in size; as to re-replication activation: % of control where 0% means no effect; details: Hoechst DNA content imaging, 48 h; re-replication activation: at 46.1 µM (top of the series) unless noted
Summary of the method: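 SW480 cells exposed to compounds for 48 hr at 37 C, 5% CO2, then Hoechst-stained 40 min. Nuclear DNA content imaged by fluorescence scanning (405 nm excitation, 500-530 nm emission); re-replication scored as increased high-intensity nuclei.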
Potency is read from the fitted curve at half-maximal effect.

Compound	re-replication activation	Potency
C=CCN1c2ccccc2[C@]23C[C@@H](C(=O)OC)N(C(=O)c4ccc(Br)cc4)C2=NC(C(=O)OC)=C(C(=O)OC)[C@H]13	inactive: 24.2%	
COc1cccc(-c2csc(NC3OC(=O)c4c3ccc(OC)c4OC)n2)c1 (centres undefined)		inconclusive: 20.6 µM [activator, partial curve, poor fit]
Cc1ccc(Sc2ccc(/C=C3/C(=O)NN(c4ccccc4)C3=O)o2)cc1	inactive: -1.68%	
O=C(Cc1ncc(C(F)(F)F)cc1Cl)N1CCN(c2ccccn2)CC1		inconclusive: 6.51 µM [activator, single point]
Fc1cccc(-c2cc3nc(-c4ccccc4)cc(N4CCC5(CC4)OCCO5)n3n2)c1	inactive: 15.8%	
O=C(Nc1ccc(C(=O)N2CCCC2)cc1)c1cccc(C(F)(F)F)c1		inconclusive: 6.51 µM [activator, single point]
CN1C(=O)NC(c2cccc(F)c2)C2=C1CC(C)(C)CC2=O (centres undefined)	inactive: 3.86%	
O=C(CCl)N1N=C(c2ccco2)CC1c1ccco1 (centres undefined)		active: 20.6 µM
CCN(CC)c1ccc(NC(=O)c2cccc(C)c2OC)c(C)c1		inconclusive: 35.5 µM [activator, single point]
C/C(=N/Nc1ccc([N+](=O)[O-])cc1)c1ccc(C)cc1C		inconclusive: 20.6 µM [activator, partial curve, poor fit]
COc1cccc(CCNC(=O)c2cc(COc3c(F)cccc3F)on2)c1	inconclusive: -23.5% [activator]	
CCCCOC(=O)CSC1=C(C#N)C(c2cccnc2)C(C(=O)OCC)=C(c2ccccc2)N1 (centres undefined)		active: 23.1 µM
Cc1ccc(C(=O)NNC(=O)c2ccoc2C)s1		inconclusive: 6.51 µM [activator, partial curve, poor fit]
COc1ccccc1NC(=O)CN(Cc1ccco1)C(=O)c1ccc(=O)[nH]c1		inconclusive: 6.51 µM [activator, partial curve, poor fit]
COc1ccc(N2C3=C(C(=O)CC(C)(C)C3)C(c3ccccc3OC)C3=C2CC(C)(C)CC3=O)cc1		active: 18.4 µM
CC1CCN(c2ccc(-c3ccc(NC(=O)c4ccco4)cc3)nn2)CC1		inconclusive: 29.1 µM [activator, single point]
CCCc1cc(C(=O)Nc2nccs2)cs1		inconclusive: 29.1 µM [activator, single point]
CS(=O)(=O)NCc1csc(-c2ccccc2)n1		inconclusive: 29.1 µM [activator, single point]
O=Cc1cn(-c2ccc(F)cc2)c2ccccc12	inactive: 3.57%	
O=C(Cn1cc(C(F)(F)F)ccc1=O)Nc1ccc2c(c1)OCCO2		inconclusive: 2.31 µM [activator, full curve, poor fit]
CC(=O)N1c2ccc(S(=O)(=O)N3CCCC(C(=O)Nc4cccc(Cl)c4)C3)cc2CC1C (centres undefined)		inconclusive: 20.6 µM [activator, single point]
Nc1nc(-c2ccc(NC(=O)c3ccco3)cc2)cs1		inconclusive: 20.6 µM [activator, single point]
O=C1C(Cc2ccccc2)Nc2ncnc(N3CCCCC3)c2N1Cc1ccccc1 (centres undefined)		inconclusive: 18.4 µM [activator, single point]

Compound	re-replication activation	Potency
CCOC(=O)N/N=C(/c1ccccc1)C1CCCCC1		inconclusive: 0.231 µM [activator, full curve, poor fit]
COc1ccccc1N(Cc1ccccc1)S(=O)(=O)c1cc(C(=O)O)ccc1Cl	inactive: 1.82%	
COc1ccc(S(=O)(=O)N(CC(=O)NC2CC2)Cc2ccccc2)cc1	inactive: -0.831%	
C=C(C)C(=O)N1CCN(C(=O)C(=C)C)c2ccccc21	inactive: -6.47%	
Cc1cc(NC(=O)COC(=O)c2cc([N+](=O)[O-])ccc2N2CCOCC2)ccc1Br		inconclusive: 1.03 µM [activator, partial curve, poor fit]
CC(=O)Nc1sc(/C(C#N)=C/c2ccc(Cl)c(Cl)c2)nc1-c1ccc(C)cc1		inconclusive: 18.4 µM [activator, single point]
COc1ccc(CNC(=O)C2CCC(CNC(=O)[C@@H]3Cc4ccccc4CN3)CC2)cc1 (some centres undefined)		inconclusive: 29.1 µM [activator, single point]
COc1ccc(/C=C/c2nc(C)c(-c3ccccc3)c(=O)[nH]2)cc1OC		inconclusive: 29.1 µM [activator, single point]
COc1ccccc1C(=O)NCCCCNC(=O)c1ccccc1OC	inactive: -12%	
COc1ccc(C(=O)NC2CC2)cc1OC1CCN(Cc2ccc(Cl)cc2)CC1		inconclusive: 29.1 µM [activator, single point]
Cc1nn(CC(=O)NCc2cccnc2)c(C)c1[N+](=O)[O-]		inconclusive: 14.6 µM [activator, single point]
C/C(=N\Nc1nc2ccccc2nc1C)c1ccccc1O		inconclusive: 2.31 µM [activator, partial curve, poor fit]
COc1ccc(C(=O)/C=C/c2ccc(OC)c(O)c2)c(F)c1		inconclusive: 29.1 µM [activator, single point]
Fc1ccc(C2CCNCC2COc2ccc3c(c2)OCO3)cc1 (centres undefined)		inconclusive: 23.1 µM [activator, single point]
CCCCN(Cc1cc2ccccc2[nH]c1=O)S(C)(=O)=O		active: 10.3 µM
CCCC(=O)Nc1ccc(-c2nc3cc(C)ccc3o2)cc1	inactive: -5.38% [at 9.22 µM]	
CCOC(=O)N/N=C/c1cn(Cc2ccccc2Cl)c2ccccc12		inconclusive: 4.61 µM [activator, full curve, poor fit]
COc1cc(-c2ccc(Nc3ccccc3C(=O)O)c(OC)c2)ccc1Nc1ccccc1C(=O)O		inconclusive: 18.4 µM [activator, single point]
CCN1/C(=C2/SC(=S)N(NC(C)=O)C2=O)Sc2ccccc21	inactive: 4.9%	
COC(=O)C1=C(C)N(Cc2ccccc2)C(=NCCc2cccnc2)N[C@H]1c1ccccc1	inactive: 12.2%	
CCCOc1ccc(NC(=O)CC2C(=O)N(C)C(=S)N2Cc2ccc3c(c2)OCO3)cc1 (centres undefined)		inconclusive: 23.1 µM [activator, partial curve, poor fit]
CC(O)C(NS(=O)(=O)c1ccc(Cl)cc1)C(=O)OCC(=O)c1c[nH]c2ccccc12 (centres undefined)	inactive: 2.92%	
CCC(=O)N(CCC(c1ccco1)C(C)C)Cc1ccccc1 (centres undefined)	inactive: -2.83% [at 9.22 µM]	

As a working copy, three of the compounds above.
Compound	re-replication activation	Potency
COc1ccccc1N(Cc1ccccc1)S(=O)(=O)c1cc(C(=O)O)ccc1Cl	inactive: 1.82%	
COc1ccc(S(=O)(=O)N(CC(=O)NC2CC2)Cc2ccccc2)cc1	inactive: -0.831%	
C=C(C)C(=O)N1CCN(C(=O)C(=C)C)c2ccccc21	inactive: -6.47%	

Carrying on.

Compound	re-replication activation	Potency
CNc1ccc(Br)cc(C(=O)/C=C/c2ccc(Cl)cc2Cl)c1=O		inconclusive: 20.6 µM [activator, single point]
CN1CCC2CC1c1cc(-c3ccc(C(F)(F)F)cc3)ccc12 (centres undefined)		inconclusive: 2.59 µM [activator, single point]
O=C(CN1CCN(c2ccc(F)cc2)CC1)Nc1nccs1		inconclusive: 2.31 µM [activator, full curve]
Cc1ccccc1NC(=O)NC1CCCCC1C (centres undefined)		inconclusive: 3.66 µM [activator, partial curve, poor fit]
N#CC1(NC(=O)COC(=O)C2=COCCO2)CCCCC1	inactive: -6.11%	
CCCOc1ccc(-c2nn(-c3ccccc3)cc2/C=C2\SC(N)=NC2=O)cc1		inconclusive: 5.17 µM [activator, full curve, poor fit]
Cc1cc2oc(C(=O)Nc3ccc(S(=O)(=O)Nc4ncccn4)cc3)c(C)c2cc1Cl		inconclusive: 29.1 µM [activator, single point]
COc1ccc(CSc2ccc(-c3nc4ccccn4c3NCc3ccccc3)cc2OC)cc1		inconclusive: 16.4 µM [activator, single point]
O=C(CCc1c[nH]c2ccccc12)Nc1ncccc1O	inactive: -5.84%	
COc1cc(C(=O)OCC(=O)c2cc(C)n(CC3CCCO3)c2C)ccc1OCC(=O)N1CCOCC1 (centres undefined)	inactive: 6.47%	
COC(=O)C/C=N/N=C1/NC(=O)/C(=C/C(=O)O)S1		inconclusive: 13 µM [activator, partial curve, poor fit]
CC(=O)n1nc(-c2ccncc2)nc1SCC(=O)Nc1cccc(Cl)c1		inconclusive: 20.6 µM [activator, single point]
COc1ccc(C(=O)OCCc2ccc(O)cc2)cc1	inactive: -2.77%	
CC1CSC(N(C(=O)c2ccc(S(C)(=O)=O)cc2)c2ccc(Cl)cc2)=N1 (centres undefined)	inactive: 3.28%	
CCOc1cccc2c1OC(c1cc(OC)c(OC)c(OC)c1)N1N=C(c3ccc(C)o3)CC21 (centres undefined)		inconclusive: 18.4 µM [activator, single point]
Cc1cc(N/N=C/c2ccc3c(c2)OCO3)nc2ccccc12		inconclusive: 18.4 µM [activator, partial curve, poor fit]
NC(=S)C(c1ccccc1)c1ncc(C(F)(F)F)cc1Cl (centres undefined)	inactive: 0.939%	
COc1ccc(OC)c(-n2c(C)ccc2-c2ccc(S(C)(=O)=O)cc2)c1	inactive: 4.76%	
CCc1ccc(/C=C2/Sc3ccccc3N(CC(=O)NCC3CCCO3)C2=O)cc1 (centres undefined)		inconclusive: 20.6 µM [activator, partial curve, poor fit]
O=C(Nc1c2c(nc3c1CCC3)CCCC2)c1ccccn1		inconclusive: 0.731 µM [activator, partial curve, poor fit]
Cc1cccc2c1N(CCOc1ccc(C(C)(C)C)cc1)C(=O)C2=O		inconclusive: 18.4 µM [activator, single point]
Cc1cc(C)c(C)c(S(=O)(=O)NCCCN2CCOCC2)c1C		inconclusive: 4.61 µM [activator, full curve, poor fit]
O=C(CCNC(=O)C1CCN(S(=O)(=O)c2ccccc2)CC1)NCc1ccncc1	inactive: -2.07%	
